Measurements reported in PubChem BioAssay AID1259308 (NCATS, 2017)
Aim: 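Genes whose loss raises luciferase production in HEK293 cells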 (primary screen). Cell system: human HEK293 embryonic kidney cells stably expressing firefly luciferase (HEK-CMV-Luc2-Hygro). Knock-down reagent: single siRNA against human genes, 0.8 pmol siRNA per well. Timing: 72 h. Measurement: 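Luciferase light (ONE-Glo) measured on one replicate plate set and viability (CellTiter-Glo) on the other, scaled to a negative control siRNA, with robust z-scores and luciferase per cell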. Reading the numbers: total luciferase, z-score: higher = more reporter protein produced. Active means: 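Active when the median/MAD z-score for overall luciferase is greater than 3; a gene was taken forward for validation with new siRNAs if at least two of its three siRNAs passed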. Calls: active = raised luciferase; inactive = no rise.
Here is one part, drawn at random, of about 59,000 deposited reagents. Over the whole deposit, about 1,510 (2.6%) got an active call. 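Calls use total luciferase alone and ignore viability, so some active siRNAs may act by altering cell number.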 The numbers tell different reagents against one gene apart. Further read-outs or replicates are left out here.

| gene symbol | reagent | total luciferase, z-score | activity call |
| --- | --- | --- | --- |
| NCK2 (GeneID 8440) | 1 | -0.775 | inactive |
| NCK2 (GeneID 8440) | 2 | -1.73 | inactive |
| NCK2 (GeneID 8440) | 3 | 1.2 | inactive |
| PPY (GeneID 5539) | 1 | 0.961 | inactive |
| PPY (GeneID 5539) | 2 | -0.511 | inactive |
| PPY (GeneID 5539) | 3 | -1.31 | inactive |
| NPTXR (GeneID 23467) | 1 | 0.806 | inactive |
| NPTXR (GeneID 23467) | 2 | 0.332 | inactive |
| NPTXR (GeneID 23467) | 3 | 0.612 | inactive |
| PBLD (GeneID 64081) | 1 | -0.336 | inactive |
| PBLD (GeneID 64081) | 2 | 0.267 | inactive |
| PBLD (GeneID 64081) | 3 | -0.423 | inactive |
| LINC00207 (GeneID 388910) | 1 | 0.151 | inactive |
| LINC00207 (GeneID 388910) | 2 | -0.21 | inactive |
| LINC00207 (GeneID 388910) | 3 | -1.9 | inactive |
| UFL1 (GeneID 23376) | 1 | 0.0414 | inactive |
| UFL1 (GeneID 23376) | 2 | -0.464 | inactive |
| UFL1 (GeneID 23376) | 3 | 2.78 | inactive |
| RGS18 (GeneID 64407) | 1 | 0.819 | inactive |
| RGS18 (GeneID 64407) | 2 | 0.28 | inactive |
| RGS18 (GeneID 64407) | 3 | 0.932 | inactive |
| STAC3 (GeneID 246329) | 1 | 0.53 | inactive |
| STAC3 (GeneID 246329) | 2 | 1.6 | inactive |
| STAC3 (GeneID 246329) | 3 | -1.47 | inactive |
| RAD54L (GeneID 8438) | 1 | -0.139 | inactive |
| RAD54L (GeneID 8438) | 2 | -0.52 | inactive |
| RAD54L (GeneID 8438) | 3 | 0.103 | inactive |
| AJAP1 (GeneID 55966) | 1 | 0.606 | inactive |
| AJAP1 (GeneID 55966) | 2 | -1.6 | inactive |
| AJAP1 (GeneID 55966) | 3 | -0.0935 | inactive |
| PCDHGC4 (GeneID 56098) | 1 | -0.793 | inactive |
| PCDHGC4 (GeneID 56098) | 2 | -1 | inactive |
| PCDHGC4 (GeneID 56098) | 3 | 4.3 | active |
| TNFSF11 (GeneID 8600) | 1 | -0.166 | inactive |
| TNFSF11 (GeneID 8600) | 2 | -1.3 | inactive |
| TNFSF11 (GeneID 8600) | 3 | 0.749 | inactive |
| LGI2 (GeneID 55203) | 1 | 1.44 | inactive |
| LGI2 (GeneID 55203) | 2 | -0.0398 | inactive |
| LGI2 (GeneID 55203) | 3 | -0.113 | inactive |
| SCAF1 (GeneID 58506) | 1 | 0.214 | inactive |
| SCAF1 (GeneID 58506) | 2 | -0.396 | inactive |
| SCAF1 (GeneID 58506) | 3 | 1.56 | inactive |
| ZNF606 (GeneID 80095) | 1 | -0.736 | inactive |
| ZNF606 (GeneID 80095) | 2 | 1.28 | inactive |
| ZNF606 (GeneID 80095) | 3 | 0.0551 | inactive |
| TNIK (GeneID 23043) | 1 | -0.909 | inactive |
| TNIK (GeneID 23043) | 2 | 1.3 | inactive |
| TNIK (GeneID 23043) | 3 | 0.417 | inactive |
| ORC4 (GeneID 5000) | 1 | 0.49 | inactive |
| ORC4 (GeneID 5000) | 2 | -1.14 | inactive |
| ORC4 (GeneID 5000) | 3 | -1.15 | inactive |
| THAP4 (GeneID 51078) | 1 | 0.392 | inactive |
| THAP4 (GeneID 51078) | 2 | 0.74 | inactive |
| THAP4 (GeneID 51078) | 3 | -1.22 | inactive |
| PDLIM3 (GeneID 27295) | 1 | -0.0785 | inactive |
| PDLIM3 (GeneID 27295) | 2 | 2.75 | inactive |
| PDLIM3 (GeneID 27295) | 3 | -0.523 | inactive |
